Measured values taken from article PMC5996148.
“And” between values parts separate entries of the source, which are not always exact repeats. Equal entries are not always repeated. Some of the results follow. For some assays here: The source does not settle which construct or isoform was used.

Sequences of proteins named here, by UniProt entry; tags and fusion partners are left off.
UniProt Q92963, whole entry: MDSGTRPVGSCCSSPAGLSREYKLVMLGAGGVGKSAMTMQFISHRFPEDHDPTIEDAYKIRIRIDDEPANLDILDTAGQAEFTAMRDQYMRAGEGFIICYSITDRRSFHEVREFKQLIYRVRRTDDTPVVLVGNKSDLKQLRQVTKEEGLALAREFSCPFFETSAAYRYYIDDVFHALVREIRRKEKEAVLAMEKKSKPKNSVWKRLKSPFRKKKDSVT

How the values were obtained:
Assay in all cases: protein microarray (ProtoArray v5.0), streptavidin-Alexa Fluor 647
Conditions in all cases: 3'-biotin; 20 mM Tris (pH 7.5), 5 mM MgCl2, 100 mM KCl, 0.1% Tween-20, A/T-rich and random oligonucleotide blockers; temperature not stated; high values mean tight binding
[1] = system: RGS6 (human)
[2] = system: RHBDD1 (human)
[3] = system: RHBDL2 (human)
[4] = system: RHCG (human)
[5] = system: RHOA (human)
[6] = system: RHOB (human)
[7] = system: RIC3 (human)
[8] = system: RING finger and WD repeat domain-containing protein 3 (human)
[9] = system: RING finger protein 122 (human)
[10] = system: RIPK3 (human)
[11] = target: RIT1 (UniProt Q92963)
[12] = system: RLBP1 (human)
[13] = system: RLBP1L1 (human)
[14] = system: RMI1 (human)
[15] = system: RNA polymerase II-associated protein 3 (human)
[16] = system: RNA-binding protein with multiple splicing (human)
[17] = system: RNASE11 (human)
[18] = system: RNASE8 (human)
[19] = system: RNF11 (human)
[20] = system: RNF111 (human)

GGGAGGCTGAGGCAGG [G4-1 biotinylated (PQS2)]
binding signal [1]: -0.266 z-score | binding signal [2]: -0.287 z-score | binding signal [3]: -0.329 z-score | binding signal [4]: -0.343 z-score | binding signal [5]: -0.334 z-score | binding signal [6]: -0.277 z-score | binding signal [7]: -0.337 z-score | binding signal [8]: -0.319 z-score and -0.32 z-score | binding signal [9]: -0.356 z-score | binding signal [10]: -0.259 z-score | binding signal [11]: 6 z-score | binding signal [12]: -0.343 z-score | binding signal [13]: -0.355 z-score | binding signal [14]: -0.277 z-score | binding signal [15]: 4.7 z-score | binding signal [16]: -0.317 z-score and -0.347 z-score | binding signal [17]: -0.342 z-score | binding signal [18]: -0.353 z-score | binding signal [19]: -0.35 z-score | binding signal [20]: -0.322 z-score
